Experimental data taken from patent publication US20180162932A1 (ACADEMISCH MEDISCH CENTRUM, published 2018).
No constants are given. Whether binding was seen depends on the method and setting. Some entries that bind do so weakly or less than the wild type.

Sequences of proteins named here, by UniProt entry; tags and fusion partners are left off. A change or cut given only in a name is not applied to a line headed by its entry.
UniProt P12643: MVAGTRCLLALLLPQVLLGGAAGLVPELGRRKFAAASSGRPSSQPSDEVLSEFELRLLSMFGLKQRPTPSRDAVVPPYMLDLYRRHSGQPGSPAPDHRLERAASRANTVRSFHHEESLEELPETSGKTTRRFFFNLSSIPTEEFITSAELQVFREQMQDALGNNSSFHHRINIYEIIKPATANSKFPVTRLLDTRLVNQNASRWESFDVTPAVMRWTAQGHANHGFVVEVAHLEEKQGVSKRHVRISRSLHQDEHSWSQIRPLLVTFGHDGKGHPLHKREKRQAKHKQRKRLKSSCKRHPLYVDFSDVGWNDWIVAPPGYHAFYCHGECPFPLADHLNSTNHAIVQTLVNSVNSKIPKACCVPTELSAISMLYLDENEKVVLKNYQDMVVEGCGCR

Key:
[1] = molecular target: T1, human mature bone morphogenic protein 4 (human, UniProt P12644 295-408); assay: SPR, control on chip, BMP injected
T1 sequence: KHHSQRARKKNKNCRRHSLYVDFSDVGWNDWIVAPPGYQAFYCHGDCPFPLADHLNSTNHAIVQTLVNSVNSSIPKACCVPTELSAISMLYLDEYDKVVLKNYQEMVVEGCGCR

[2] = molecular target: T2, human mature bone morphogenic protein 5 (human, UniProt P22003 340-454); assay: SPR, control on chip, BMP injected
T2 construct: Often printed as BMPS in the text; also called BMP5; BMPS (so in the source)
T2 sequence: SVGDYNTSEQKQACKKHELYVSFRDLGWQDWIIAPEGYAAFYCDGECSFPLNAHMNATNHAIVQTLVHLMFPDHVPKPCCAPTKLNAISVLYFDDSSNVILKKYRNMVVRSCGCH

[3] = molecular target: T3, human mature bone morphogenic protein 6 (human, UniProt P22004 375-513); assay: SPR, control on chip, BMP injected
T3 construct: also called BMP6; BMP-6
T3 sequence: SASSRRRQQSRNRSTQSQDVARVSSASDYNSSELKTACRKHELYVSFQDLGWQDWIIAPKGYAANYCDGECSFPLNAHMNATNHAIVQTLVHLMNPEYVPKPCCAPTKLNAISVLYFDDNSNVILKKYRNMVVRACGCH

[4] = molecular target: T4, human mature bone morphogenic protein 7 (human, UniProt P18075 293-431); assay: SPR, control on chip, BMP injected
T4 construct: also called BMP7; BMP-7
T4 sequence: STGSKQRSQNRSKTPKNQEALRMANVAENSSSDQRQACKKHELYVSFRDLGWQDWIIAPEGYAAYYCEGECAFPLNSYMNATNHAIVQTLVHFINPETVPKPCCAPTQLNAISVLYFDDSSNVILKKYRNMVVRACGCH

[5] = molecular target: mature bone morphogenic protein 2 (human, UniProt P12643 283-396); assay: SPR, control on chip, BMP injected
[6] = molecular target: T1, human mature bone morphogenic protein 4; assay: SPR sandwich (epitope binning): BMP4 captured on the spotted molecule, then mNoggin injected [F]

Measured: binding

B1: mouse Noggin (other, UniProt P97466 28-232, looked up)
chain: QHYLHIRPAPSDNLPLVDLIEHPDPIFDPKEKDLNETLLRSLLGGHYDPGFMATSPPEDRPGGGGGPAGGAEDLAELDQLLRQRPSGAMPSEIKGLEFSEGLAQGKKQRLSKKLRRKLQMWLWSQTFCPVLYAWNDLGSRFWPRYVKVGSCFSKRSCSVPEGMVCKPSKSVHLTVLRWRCQRRGGQRCGWIPIQYPIISECKCSC
binds: all assays above
